Test results from PubChem BioAssay AID256 (DTP/NCI, 2004).
The list does not hold the whole screen: it is rich in T/C values a quarter to a half above the control, in often repeated tests (any T/C) and in doses without a T/C. Other doses and runs of a compound stand elsewhere. T/C is the treated group as % of the vehicle group. Some entries give survivors of the animals treated and no T/C: the source files T/C as zero there, which appears to mark a toxic dose or a test without result, not a measured value. Some doses without a T/C left all or most animals alive at the check, yet need not have been tolerated: survival well below the control is almost never listed, so the zero probably covers shortened survival too. Counts of survivors are from the toxicity check (mostly the fifth day) where no day follows; animals may have died later. Schedule codes are those of the source, read here as Q, the interval in days (D) or hours (H), X, the number of doses. For survival time, this PubChem deposit counts one and a half times the control or more as active, and values a quarter to a half above the control carry no call in these data; other NCI protocols may use other cut-offs. Some T/C values carry the count of animals alive at the toxicity check (mostly the fifth day); where none is given, no animal had died by that day.

Tested on: CD2F1 mice, L1210 leukemia ip, survival T/C
Assay: NCI In Vivo Anticancer Drug Screen. Data for tumor model L1210 Leukemia (intraperitoneal) in CD2F1 (CDF1) mice
Conditions: T/C endpoint: mean survival time, higher T/C = longer survival
Outline: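 In this screen, transplantable tumors were grown in mice given either the compound or its vehicle. Results were expressed as the treated measurement relative to the control measurement.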

[1] = dose: 400.0 mg/kg/injection, schedule: Q01DX009 (ip), vehicle: saline with Tween-80

## O=C(C=C(C(F)(F)F)C(F)(F)F)c1ccccc1[N+](=O)[O-]
dose: 50.0 mg/kg/injection, schedule: Q04DX003 (ip), vehicle: other
  survivor count: 3 of 6
dose: 100.0 mg/kg/injection, schedule: Q04DX003 (ip), vehicle: other
  survivor count: 6 of 6
dose: 200.0 mg/kg/injection, schedule: Q04DX003 (ip), vehicle: other
  survivor count: 6 of 6
dose: 400.0 mg/kg/injection, schedule: Q04DX003 (ip), vehicle: other
  survivor count: 3 of 6

## CC(=O)N(C)N=Nc1ccc(C)cc1
dose: 133.0 mg/kg/injection, schedule: Q04DX003 (ip), vehicle: other
  T/C: 125 % of control
dose: 300.0 mg/kg/injection, schedule: Q04DX003 (ip), vehicle: other
  T/C: 128 % of control [5 of 6 alive]

## NNC(=O)COc1ccc(Cl)cc1Cl
dose: 200.0 mg/kg/injection, schedule: Q01DX009 (ip), vehicle: saline with Tween-80
  survivor count: 3 of 6
[1]
  survivor count: 0 of 6

## COC(=O)c1cc([N+](=O)[O-])cc([N+](=O)[O-])c1Sc1ncnc2nc[nH]c12
dose: 20.0 mg/kg/injection, schedule: Q01DX005 (ip), vehicle: other
  survivor count: 1 of 3
dose: 80.0 mg/kg/injection, schedule: Q01DX005 (ip), vehicle: other
  survivor count: 0 of 3

## NC(=O)c1cn(C2OC(CO)C(O)C2O)c2ncn3ncnc3c12 (stereo unspecified)
dose: 25.0 mg/kg/injection, schedule: Q01DX005 (ip), vehicle: water
  T/C: 128 % of control
dose: 100.0 mg/kg/injection, schedule: Q01DX005 (ip), vehicle: water
  survivor count: 0 of 6
dose: 200.0 mg/kg/injection, schedule: Q01DX005 (ip), vehicle: water
  survivor count: 0 of 6
dose: 400.0 mg/kg/injection, schedule: Q01DX005 (ip), vehicle: water
  survivor count: 0 of 6

## c1ccc(NC2CCN(C3(c4ccccc4)CCCCC3)CC2)cc1
dose: 100.0 mg/kg/injection, schedule: Q04DX002 (ip), vehicle: saline
  survivor count: 1 of 3

## CSc1nc(NC(C)C)nc(NC(C)C)n1
dose: 400.0 mg/kg/injection, schedule: Q04DX003 (ip), vehicle: saline
  survivor count: 2 of 6

## O=C(O)c1cccc(S(=O)(=O)N(CCO)CCO)c1
[1]
  survivor count: 5 of 6

## CC(CCC/C=C/CCCN(C)C(=N)N)CC(C)C1OC(=O)C(C)C(O)/C=C/C(C)C(O)C(C)C(O)C(C)C(O)CCCC(O)CC2(O)OC(CC(OC(=O)CC(=O)O)CC(O)CC(O)C(C)C(O)/C=C/C=C/C1C)CC(O)C2O (stereo unspecified)
dose: 8.4 mg/kg/injection, schedule: Q01DX009 (ip), vehicle: saline
  survivor count: 1 of 6
dose: 12.6 mg/kg/injection, schedule: Q01DX009 (ip), vehicle: saline
  survivor count: 0 of 6

## CN1CCCC(OC(=O)C(c2ccccc2)C2(O)CCCC2)C1 (stereo unspecified)
dose: 150.0 mg/kg/injection, schedule: Q01DX001 (ip), vehicle: saline
  survivor count: 1 of 6
dose: 300.0 mg/kg/injection, schedule: Q01DX001 (ip), vehicle: saline
  survivor count: 0 of 6
